Test results from PMC4725867.
These are yes or no findings as the source states them, for the method shown. Binding seen in cells or lysates may run through a third protein. Some results given as binding are weak or reduced against the parent protein; the word gives no strength.

Amino acid sequences for entries named in this document (tags omitted). A change or cut given only in a name is not applied to a line headed by its entry.
UniProt Q05397: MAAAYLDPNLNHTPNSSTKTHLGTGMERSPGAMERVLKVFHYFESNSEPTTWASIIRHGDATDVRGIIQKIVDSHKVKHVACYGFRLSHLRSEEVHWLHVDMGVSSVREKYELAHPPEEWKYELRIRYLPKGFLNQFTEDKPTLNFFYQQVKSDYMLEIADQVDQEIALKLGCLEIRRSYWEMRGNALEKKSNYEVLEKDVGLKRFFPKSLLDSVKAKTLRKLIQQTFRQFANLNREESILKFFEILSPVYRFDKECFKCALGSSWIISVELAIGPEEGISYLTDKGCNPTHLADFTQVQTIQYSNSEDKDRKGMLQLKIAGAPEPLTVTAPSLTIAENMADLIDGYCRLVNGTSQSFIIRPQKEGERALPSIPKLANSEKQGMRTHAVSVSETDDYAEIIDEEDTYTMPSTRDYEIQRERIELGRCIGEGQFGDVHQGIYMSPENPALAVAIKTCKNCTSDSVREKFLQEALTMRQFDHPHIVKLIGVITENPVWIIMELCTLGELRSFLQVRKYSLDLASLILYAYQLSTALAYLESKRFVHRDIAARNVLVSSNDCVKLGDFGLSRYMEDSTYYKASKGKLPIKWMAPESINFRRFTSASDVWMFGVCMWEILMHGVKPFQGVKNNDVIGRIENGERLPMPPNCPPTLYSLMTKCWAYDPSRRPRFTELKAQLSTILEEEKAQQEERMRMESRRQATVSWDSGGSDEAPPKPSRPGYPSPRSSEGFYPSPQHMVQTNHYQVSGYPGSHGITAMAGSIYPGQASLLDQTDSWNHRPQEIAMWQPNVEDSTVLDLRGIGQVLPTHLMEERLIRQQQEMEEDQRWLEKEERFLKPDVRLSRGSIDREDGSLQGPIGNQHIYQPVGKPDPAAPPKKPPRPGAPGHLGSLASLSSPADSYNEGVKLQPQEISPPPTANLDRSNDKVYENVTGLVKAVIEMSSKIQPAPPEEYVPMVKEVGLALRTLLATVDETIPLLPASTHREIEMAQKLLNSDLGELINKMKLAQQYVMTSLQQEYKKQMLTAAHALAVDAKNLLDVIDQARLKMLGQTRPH
UniProt P05556: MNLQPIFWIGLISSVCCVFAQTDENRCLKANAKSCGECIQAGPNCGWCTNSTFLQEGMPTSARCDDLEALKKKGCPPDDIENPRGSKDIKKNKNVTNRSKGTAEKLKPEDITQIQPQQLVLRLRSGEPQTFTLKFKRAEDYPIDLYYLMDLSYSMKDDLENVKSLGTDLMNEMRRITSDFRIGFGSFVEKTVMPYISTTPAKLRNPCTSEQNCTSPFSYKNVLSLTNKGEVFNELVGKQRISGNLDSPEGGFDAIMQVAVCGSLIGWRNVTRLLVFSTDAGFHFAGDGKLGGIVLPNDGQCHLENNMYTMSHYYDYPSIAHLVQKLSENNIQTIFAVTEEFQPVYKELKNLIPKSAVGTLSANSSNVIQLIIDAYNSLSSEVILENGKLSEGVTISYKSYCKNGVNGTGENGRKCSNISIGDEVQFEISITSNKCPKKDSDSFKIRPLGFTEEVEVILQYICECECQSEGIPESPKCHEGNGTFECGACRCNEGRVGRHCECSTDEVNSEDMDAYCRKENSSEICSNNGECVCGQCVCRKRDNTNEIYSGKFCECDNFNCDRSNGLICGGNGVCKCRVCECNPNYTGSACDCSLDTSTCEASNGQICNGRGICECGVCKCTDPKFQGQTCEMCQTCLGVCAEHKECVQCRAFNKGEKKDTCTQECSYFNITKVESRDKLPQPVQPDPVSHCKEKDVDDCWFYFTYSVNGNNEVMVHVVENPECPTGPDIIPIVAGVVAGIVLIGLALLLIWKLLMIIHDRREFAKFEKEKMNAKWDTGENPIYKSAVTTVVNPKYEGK

How the values were obtained:
[1] = molecular target: Focal Adhesion Kinase (human (endogenous in normal human lung fibroblasts)) (UniProt Q05397); test: co-IP; lysates of serum-starved human lung fibroblasts on fibronectin treated with PDGF-BB (2 ng/ml, time course up to 20 h; also with FAK inhibitor PF-573228 up to 5 μM, or control IgG); sepharose-coupled anti-FAK antibody, overnight at 4 degree; blot with anti-β1
[2] = molecular target: Focal Adhesion Kinase (human (endogenous in normal human lung fibroblasts)) (UniProt Q05397); test: co-IP; lysates of serum-starved human lung fibroblasts on fibronectin without PDGF-BB (vehicle); sepharose-coupled anti-FAK antibody, overnight at 4 degree; blot with anti-β1
[3] = molecular target: Focal Adhesion Kinase (human (endogenous in normal human lung fibroblasts)) (UniProt Q05397); test: as above; remark: listed apart in the source

binding [1]: binds
binding [3]: binds weakly
Substance: integrin β1 (from UniProt P05556 21-798) (receptor)
binding [2]: no binding (condition: without PDGF-BB stimulation)
